Test results taken from article PMC8868058.
No constants are given. Whether binding was seen depends on the method and setting. Binding seen in cells or lysates may run through a third protein. Some results given as binding are weak or reduced against the parent protein; the word gives no strength.

Protein sequences, listed by entry. Tags and fused reporters are not part of them. Lines headed by an entry give the natural chain unless they say otherwise; changes in a name come on top.
UniProt P63104: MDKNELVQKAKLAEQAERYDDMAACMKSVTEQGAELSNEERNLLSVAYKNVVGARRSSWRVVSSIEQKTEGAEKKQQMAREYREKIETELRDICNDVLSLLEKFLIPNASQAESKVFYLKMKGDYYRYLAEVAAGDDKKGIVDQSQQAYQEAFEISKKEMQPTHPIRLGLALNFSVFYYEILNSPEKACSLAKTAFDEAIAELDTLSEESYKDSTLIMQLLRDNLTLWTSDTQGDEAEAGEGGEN

Target: T1, heme oxygenase 1 (HO-1), endogenous (human (endogenous in PC3)) (UniProt P09601)
T1 sequence: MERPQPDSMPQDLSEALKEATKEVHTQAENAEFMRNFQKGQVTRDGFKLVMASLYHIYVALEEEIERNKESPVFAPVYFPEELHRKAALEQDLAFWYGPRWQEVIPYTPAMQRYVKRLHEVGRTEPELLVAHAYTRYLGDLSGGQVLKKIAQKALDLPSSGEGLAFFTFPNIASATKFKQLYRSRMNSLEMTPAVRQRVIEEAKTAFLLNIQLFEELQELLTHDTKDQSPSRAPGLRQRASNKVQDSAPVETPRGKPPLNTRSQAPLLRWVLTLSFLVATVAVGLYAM
Assay: co-IP; PC3 lysates (cells treated with H2O2 or vehicle), 500 µg protein with 10 µg rabbit anti-human HO-1 antibody in RIPA buffer overnight at 4 °C, Protein A/G PLUS-Agarose; Western blot for 14-3-3ζ/δ; nonspecific IgG as control

Q: How did the binding turn out when “14-3-3 zeta delta-like protein (14-3-3ζ/δ) (from UniProt P63104 1-245)” was run?
A: The binding was “binds”.
